These are yes or no findings as the source states them, for the method shown. In cells and extracts the contact can be indirect. Some entries that bind do so weakly or less than the wild type. For part of these data: Tags and fused reporters may be left off the sequences shown.
Columns and labels:
Assay in all cases: co-IP; RIPA lysates, 1 mg protein with 10 μg anti-Flag or IgG overnight at 4 °C, protein A/G magnetic beads, SDS-PAGE and blot
[1] = molecular target: T1, Synaptotagmin-4 (SYT4), overexpressed in cells (UniProt Q9H2B2)
T1 sequence: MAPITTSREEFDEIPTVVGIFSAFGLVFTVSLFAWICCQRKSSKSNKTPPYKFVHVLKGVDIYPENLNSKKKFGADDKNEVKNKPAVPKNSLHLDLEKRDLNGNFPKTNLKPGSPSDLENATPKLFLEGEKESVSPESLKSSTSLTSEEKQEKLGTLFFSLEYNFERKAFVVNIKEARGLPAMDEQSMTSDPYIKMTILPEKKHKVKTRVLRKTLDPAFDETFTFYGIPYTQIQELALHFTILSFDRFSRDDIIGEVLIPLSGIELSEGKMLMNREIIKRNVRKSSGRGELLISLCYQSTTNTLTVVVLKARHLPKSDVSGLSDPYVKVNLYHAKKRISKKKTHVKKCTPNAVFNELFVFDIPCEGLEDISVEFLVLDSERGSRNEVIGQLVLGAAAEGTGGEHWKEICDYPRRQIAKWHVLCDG

The chains behind the UniProt entries cited, without tags or fusion partners.
UniProt P62333: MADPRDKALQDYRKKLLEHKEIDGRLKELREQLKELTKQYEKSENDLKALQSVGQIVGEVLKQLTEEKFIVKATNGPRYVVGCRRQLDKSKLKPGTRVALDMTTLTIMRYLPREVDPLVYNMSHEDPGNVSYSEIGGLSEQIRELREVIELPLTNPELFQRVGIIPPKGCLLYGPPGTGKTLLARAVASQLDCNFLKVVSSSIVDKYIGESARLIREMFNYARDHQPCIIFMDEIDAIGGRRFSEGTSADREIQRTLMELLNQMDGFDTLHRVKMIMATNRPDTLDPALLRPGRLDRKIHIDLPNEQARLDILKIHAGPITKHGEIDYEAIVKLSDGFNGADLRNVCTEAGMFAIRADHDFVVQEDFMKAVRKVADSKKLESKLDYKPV

[2] = molecular target: T2, Full-length SYT4 (construct of the truncation series) (UniProt Q9H2B2)
T2 sequence: T1 sequence

[3] = molecular target: T3, SYT4-C2B mutant (amino acids 288-423) (UniProt Q9H2B2)
T3 sequence: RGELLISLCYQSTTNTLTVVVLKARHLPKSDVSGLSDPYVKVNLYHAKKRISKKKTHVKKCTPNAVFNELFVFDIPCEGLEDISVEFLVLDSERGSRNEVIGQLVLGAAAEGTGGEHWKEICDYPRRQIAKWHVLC

- binding [1]: binds
- binding [2]: binds
- binding [3]: binds
Substance: Proteasome 26S subunit ATPase 6 (PSMC6), in cell lysate (from UniProt P62333 1-389)

Source: article PMC12631102, “SYT4 Interacts with PSMC6 to Facilitate Malignant Progression in Gastric Carcinoma via Activating Wnt/β-catenin Signaling” (International Journal of Biological Sciences, 2025)
